# In US11702450B2, “Proteogenomic-based method for identifying tumor-specific antigens” (UNIVERSITÉ DE MONTRÉAL, priority 2018, dated 2023):
# System: EL4 cells
# Assay: TSA copy number per cell by PRM MS with 13C-labelled synthetic peptides
# Design: species or system mouse
# Settings: EL4 cell population used for rechallenge (day 150)
sequence,measurement,value
VNYIHRNV,TSA copy number per cell,no longer detected
VNYLHRNV,TSA copy number per cell,> 500 copies per cell
